Measurements taken from PubChem BioAssay (EPA / NIEHS).
“And” between values parts separate entries of the source, which are not always exact repeats. Identical values can stand only once. Inconclusive means that the source gave no clear call. Such entries were picked first, then a sample of the others. Where the call is inconclusive, the potency comes from a doubtful curve fit. The source made the active and inactive calls. How the source made its calls: active means hit-call score of the fitted dose curve at least 0.9, where 1 is the maximum; inconclusive means response in the unintended direction; inactive means score below 0.9.

Protein sequences, listed by entry. Tags and fused reporters are not part of them. Lines headed by an entry give the natural chain unless they say otherwise; changes in a name come on top.
UniProt Q9Y233: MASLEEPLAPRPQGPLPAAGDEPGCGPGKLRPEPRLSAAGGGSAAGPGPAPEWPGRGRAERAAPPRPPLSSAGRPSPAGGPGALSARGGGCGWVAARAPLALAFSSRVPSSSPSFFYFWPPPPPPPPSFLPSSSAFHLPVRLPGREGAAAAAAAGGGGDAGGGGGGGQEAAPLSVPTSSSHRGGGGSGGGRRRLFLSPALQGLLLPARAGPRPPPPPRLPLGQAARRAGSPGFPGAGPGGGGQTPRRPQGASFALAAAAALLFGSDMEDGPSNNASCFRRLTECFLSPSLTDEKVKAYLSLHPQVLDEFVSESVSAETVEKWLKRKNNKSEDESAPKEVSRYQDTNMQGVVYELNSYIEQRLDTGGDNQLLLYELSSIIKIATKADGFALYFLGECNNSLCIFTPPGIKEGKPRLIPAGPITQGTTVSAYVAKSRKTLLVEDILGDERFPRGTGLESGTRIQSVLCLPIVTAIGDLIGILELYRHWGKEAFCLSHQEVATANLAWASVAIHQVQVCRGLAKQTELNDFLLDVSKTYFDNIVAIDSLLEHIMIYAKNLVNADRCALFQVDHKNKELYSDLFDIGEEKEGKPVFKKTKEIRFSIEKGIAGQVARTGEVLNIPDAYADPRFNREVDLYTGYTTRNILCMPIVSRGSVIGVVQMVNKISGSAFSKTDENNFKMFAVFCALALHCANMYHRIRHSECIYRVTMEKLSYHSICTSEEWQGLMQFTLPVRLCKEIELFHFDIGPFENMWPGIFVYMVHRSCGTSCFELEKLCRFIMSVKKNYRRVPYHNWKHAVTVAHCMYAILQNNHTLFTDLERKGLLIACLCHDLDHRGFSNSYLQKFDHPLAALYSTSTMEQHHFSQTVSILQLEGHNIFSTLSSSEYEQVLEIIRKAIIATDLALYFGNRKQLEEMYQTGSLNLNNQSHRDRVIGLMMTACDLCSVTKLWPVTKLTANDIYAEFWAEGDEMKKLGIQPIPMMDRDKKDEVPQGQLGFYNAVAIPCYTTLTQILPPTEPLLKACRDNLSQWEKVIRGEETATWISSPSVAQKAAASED
UniProt P42336, whole entry, looked up: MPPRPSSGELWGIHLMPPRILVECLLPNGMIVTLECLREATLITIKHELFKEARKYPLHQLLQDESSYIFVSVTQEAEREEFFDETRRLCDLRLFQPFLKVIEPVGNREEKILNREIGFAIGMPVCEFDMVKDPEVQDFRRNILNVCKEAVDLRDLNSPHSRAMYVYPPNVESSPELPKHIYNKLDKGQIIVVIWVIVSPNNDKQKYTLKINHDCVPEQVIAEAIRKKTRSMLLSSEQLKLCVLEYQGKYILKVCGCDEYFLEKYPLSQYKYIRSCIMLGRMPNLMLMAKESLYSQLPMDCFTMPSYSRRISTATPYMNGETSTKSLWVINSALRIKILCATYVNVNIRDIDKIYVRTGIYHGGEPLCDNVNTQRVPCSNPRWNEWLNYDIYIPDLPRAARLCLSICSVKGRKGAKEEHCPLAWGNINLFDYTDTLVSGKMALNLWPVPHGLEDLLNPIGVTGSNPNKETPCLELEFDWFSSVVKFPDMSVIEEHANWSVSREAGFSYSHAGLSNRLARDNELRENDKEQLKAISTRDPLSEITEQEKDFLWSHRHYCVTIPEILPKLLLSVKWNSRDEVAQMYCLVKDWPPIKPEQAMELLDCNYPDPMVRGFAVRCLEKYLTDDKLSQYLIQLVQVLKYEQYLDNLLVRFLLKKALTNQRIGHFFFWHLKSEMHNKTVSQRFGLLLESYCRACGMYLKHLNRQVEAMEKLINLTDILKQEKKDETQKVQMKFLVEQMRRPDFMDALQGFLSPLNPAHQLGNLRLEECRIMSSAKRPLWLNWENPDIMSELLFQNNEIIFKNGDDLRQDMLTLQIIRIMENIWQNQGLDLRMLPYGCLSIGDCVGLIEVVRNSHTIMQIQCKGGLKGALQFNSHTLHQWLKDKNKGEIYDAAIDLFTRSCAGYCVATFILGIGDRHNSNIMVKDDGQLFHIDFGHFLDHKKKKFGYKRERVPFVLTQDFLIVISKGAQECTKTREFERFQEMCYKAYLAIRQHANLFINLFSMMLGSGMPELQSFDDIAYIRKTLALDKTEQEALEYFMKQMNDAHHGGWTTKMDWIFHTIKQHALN

Each compound was assayed against human Phosphodiesterase 10 (PDE10), PDE10A (gene 10846) (UniProt Q9Y233) (assay: NVS_ENZ_hPDE10: NovaScreen (NVS) Enzymatic Assay for human Phosphodiesterase 10 (PDE10) (AID 2283195)).
Method in brief: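 Readout is fluorescence intensity following electrophoretic mobility-shift separation, 1 h after dosing of isolated PDE10A protein. Hits meeting a preset threshold at 25 uM went to concentration series (max 50 uM), analysed relative to DMSO.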

Question: `N#C/C=C/c1ccccc1` was tested. Which outcome did it give?
Answer: Its outcome is “inactive”.

Question: With `Cc1cc(Cl)ccc1OC(C)C(=O)O` (stereo unspecified) as the compound, how does the AC50 read?
Answer: Its AC50 is inconclusive: 5.91 µM.

Question: `O=C(O)C(F)(F)C(F)(F)C(F)(F)C(F)(F)C(F)(F)F` was tested. Which outcome did it give?
Answer: The outcome was “inactive”.

Question: With `O=C(CCl)NCO` as the compound, how does the AC50 read?
Answer: Its AC50 is inconclusive: 26.6 µM.

Question: With `Oc1c(I)cc(I)cc1I` as the compound, how does the AC50 read?
Answer: The AC50 was inconclusive: 25 µM.

Question: `Cc1ccc2c(c1N)C(=O)c1ccccc1C2=O` was tested. Which AC50 did it give?
Answer: The AC50 was active: 5.53 µM.

Question: With `Cc1cc(C)c(C(=O)P(=O)(c2ccccc2)c2ccccc2)c(C)c1` as the compound, how does the AC50 read?
Answer: The AC50 was active: 0.687 µM.

Question: How did the AC50 turn out when `O=C(Cl)OCCOCCOC(=O)Cl` was run?
Answer: Its AC50 is inconclusive: 25 µM.

Question: Which AC50 does the source give for `N#Cc1cccnc1` here?
Answer: Its AC50 is inconclusive: 0.178 µM.

Question: With `Oc1ccc(Cl)cc1Cc1ccccc1` as the compound, how does the AC50 read?
Answer: Its AC50 is inconclusive: 25 µM.

Question: Which AC50 does the source give for `CC(C)(C#N)N=NC(C)(C)C#N` here?
Answer: Its AC50 is inconclusive: 25 µM.

Question: With `O=S(=O)(C(Cl)(Cl)Cl)C(Cl)(Cl)Cl` as the compound, how does the AC50 read?
Answer: The AC50 was inconclusive: 25 µM.

Question: `CC(=O)C(Cl)C(=O)N(C)C` (stereo unspecified) was tested. Which AC50 did it give?
Answer: Its AC50 is inconclusive: 25 µM.

Question: With `CC(C)CCCCCCCOP(=O)(Oc1ccccc1)Oc1ccccc1` as the compound, how does the AC50 read?
Answer: Its AC50 is inconclusive: 0.0931 µM.

Question: How did the outcome turn out when `O=C(Oc1ccc(Br)cc1)N1CCN2CCC1CC2` was run?
Answer: The outcome was “inactive”.

Question: `Nc1cccc2ccccc12` was tested. Which AC50 did it give?
Answer: Its AC50 is active: 9.86 µM.

Question: How did the outcome turn out when `O=c1c2ccccc2c(=O)c2c1cc(Cl)c1[nH]c3c([nH]c12)c(Cl)cc1c(=O)c2ccccc2c(=O)c13` was run?
Answer: Its outcome is “inactive”.

Question: `COCC(=O)N(c1c(C)cccc1C)[C@H](C)C(=O)OC` was tested. Which AC50 did it give?
Answer: Its AC50 is inconclusive: 25 µM.

Question: For `Cc1ccccc1OP(=O)(Oc1ccccc1)Oc1ccccc1`, which AC50 is on record?
Answer: The AC50 was inconclusive: 0.0404 µM.

These compounds were tested against human Phosphoinositide 3-kinase alpha (PI3Ka), PIK3CA (gene 5290) (UniProt P42336) (assay: NVS_ENZ_hPI3Ka: NovaScreen (NVS) Enzymatic Assay for human Phosphoinositide 3-kinase alpha (PI3Ka) (AID 2283196)).
Method in brief: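 Chemicals were first screened at 25 uM in duplicate, then hits were run as concentration series up to 50 uM. Enzyme activity was measured by fluorescence after mobility-shift separation, with loss of signal relative to DMSO taken as activity.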

Question: For `O=[N+]([O-])c1ccc(Nc2ccccc2)cc1`, which outcome is on record?
Answer: The outcome was “inactive”.

Question: `CCCCCCCCCCCCCN1CC(C)OC(C)C1` (stereo unspecified) was tested. Which AC50 did it give?
Answer: Its AC50 is inconclusive: 10.3 µM.

Question: `CC1(C(=O)Nc2ccc(O)c(Cl)c2Cl)CCCCC1` was tested. Which outcome did it give?
Answer: The outcome was “inactive”.

Question: How did the AC50 turn out when `CCCCOC(=O)c1ccccc1C(=O)OCCCC` was run?
Answer: Its AC50 is inconclusive: 25 µM.

Question: How did the AC50 turn out when `O=C(O)C(F)(F)C(F)(F)C(F)(F)C(F)(F)C(F)(F)F` was run?
Answer: Its AC50 is inconclusive: 25 µM.

Question: For `CC1(C)CN=C(NN=C(/C=C/c2ccc(C(F)(F)F)cc2)/C=C/c2ccc(C(F)(F)F)cc2)NC1`, which AC50 is on record?
Answer: The AC50 was active: 14.1 µM.

Question: For `CC(C)(C)C(O)C(Oc1ccc(Cl)cc1)n1cncn1` (stereo unspecified), which AC50 is on record?
Answer: Its AC50 is inconclusive: 25 µM and inconclusive: 4.96 µM.

Question: `O=C(Cl)OCCOCCOC(=O)Cl` was tested. Which AC50 did it give?
Answer: Its AC50 is inconclusive: 0.31 µM.

Question: With `CCOC(=O)CCN(SN(C)C(=O)Oc1cccc2c1OC(C)(C)C2)C(C)C` as the compound, how does the outcome read?
Answer: The outcome was “inactive”.

Question: How did the AC50 turn out when `CC(C)Nc1ccc(Nc2ccccc2)cc1` was run?
Answer: Its AC50 is inconclusive: 0.133 µM.

Question: How did the AC50 turn out when `N#Cc1cccnc1` was run?
Answer: The AC50 was inconclusive: 25 µM.

Question: For `Oc1ccc(Cl)cc1Cc1ccccc1`, which outcome is on record?
Answer: Its outcome is “inactive”.

Question: `c1ccc2sc(SNC3CCCCC3)nc2c1` was tested. Which AC50 did it give?
Answer: Its AC50 is inconclusive: 25 µM.

Question: `Nc1cccc2ccccc12` was tested. Which AC50 did it give?
Answer: The AC50 was inconclusive: 25 µM.

Question: With `O=c1c2ccccc2c(=O)c2c1cc(Cl)c1[nH]c3c([nH]c12)c(Cl)cc1c(=O)c2ccccc2c(=O)c13` as the compound, how does the AC50 read?
Answer: The AC50 was active: 4.37 µM.

Question: For `CC[N+](CC)(CC)CC`, which AC50 is on record?
Answer: The AC50 was inconclusive: 0.237 µM.

Question: With `BrCCCCBr` as the compound, how does the AC50 read?
Answer: Its AC50 is inconclusive: 0.16 µM.
